These are yes or no findings as the source states them, for the method shown. In cells and extracts the contact can be indirect. A result given as binding can be weak or reduced; the word gives no strength. Tags and fused reporters may be left off the sequences shown.
Target: T1, full length HIS-tagged Satb1 (UniProt Q01826)
T1 sequence: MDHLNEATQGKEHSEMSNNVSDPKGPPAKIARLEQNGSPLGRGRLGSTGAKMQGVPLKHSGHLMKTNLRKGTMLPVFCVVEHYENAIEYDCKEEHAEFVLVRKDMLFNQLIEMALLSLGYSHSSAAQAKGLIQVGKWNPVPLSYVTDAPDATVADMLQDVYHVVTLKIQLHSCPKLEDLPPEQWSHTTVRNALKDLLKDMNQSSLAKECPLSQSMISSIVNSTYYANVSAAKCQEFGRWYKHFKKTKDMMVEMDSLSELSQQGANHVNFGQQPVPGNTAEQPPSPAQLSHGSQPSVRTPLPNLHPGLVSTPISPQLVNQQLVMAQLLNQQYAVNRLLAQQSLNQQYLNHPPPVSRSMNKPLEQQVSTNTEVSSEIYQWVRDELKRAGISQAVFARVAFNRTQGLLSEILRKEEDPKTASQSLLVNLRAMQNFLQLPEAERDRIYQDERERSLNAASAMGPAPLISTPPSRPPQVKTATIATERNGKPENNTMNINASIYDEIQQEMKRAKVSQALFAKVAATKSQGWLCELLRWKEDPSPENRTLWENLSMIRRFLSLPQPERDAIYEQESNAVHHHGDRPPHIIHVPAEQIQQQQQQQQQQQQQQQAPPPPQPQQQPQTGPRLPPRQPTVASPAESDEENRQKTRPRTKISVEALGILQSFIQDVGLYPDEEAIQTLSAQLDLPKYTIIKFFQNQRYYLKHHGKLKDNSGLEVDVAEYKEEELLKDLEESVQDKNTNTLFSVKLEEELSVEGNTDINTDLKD
Test: pull-down

Amino acid sequences for entries named in this document (tags omitted). A change or cut given only in a name is not applied to a line headed by its entry.
UniProt Q14683: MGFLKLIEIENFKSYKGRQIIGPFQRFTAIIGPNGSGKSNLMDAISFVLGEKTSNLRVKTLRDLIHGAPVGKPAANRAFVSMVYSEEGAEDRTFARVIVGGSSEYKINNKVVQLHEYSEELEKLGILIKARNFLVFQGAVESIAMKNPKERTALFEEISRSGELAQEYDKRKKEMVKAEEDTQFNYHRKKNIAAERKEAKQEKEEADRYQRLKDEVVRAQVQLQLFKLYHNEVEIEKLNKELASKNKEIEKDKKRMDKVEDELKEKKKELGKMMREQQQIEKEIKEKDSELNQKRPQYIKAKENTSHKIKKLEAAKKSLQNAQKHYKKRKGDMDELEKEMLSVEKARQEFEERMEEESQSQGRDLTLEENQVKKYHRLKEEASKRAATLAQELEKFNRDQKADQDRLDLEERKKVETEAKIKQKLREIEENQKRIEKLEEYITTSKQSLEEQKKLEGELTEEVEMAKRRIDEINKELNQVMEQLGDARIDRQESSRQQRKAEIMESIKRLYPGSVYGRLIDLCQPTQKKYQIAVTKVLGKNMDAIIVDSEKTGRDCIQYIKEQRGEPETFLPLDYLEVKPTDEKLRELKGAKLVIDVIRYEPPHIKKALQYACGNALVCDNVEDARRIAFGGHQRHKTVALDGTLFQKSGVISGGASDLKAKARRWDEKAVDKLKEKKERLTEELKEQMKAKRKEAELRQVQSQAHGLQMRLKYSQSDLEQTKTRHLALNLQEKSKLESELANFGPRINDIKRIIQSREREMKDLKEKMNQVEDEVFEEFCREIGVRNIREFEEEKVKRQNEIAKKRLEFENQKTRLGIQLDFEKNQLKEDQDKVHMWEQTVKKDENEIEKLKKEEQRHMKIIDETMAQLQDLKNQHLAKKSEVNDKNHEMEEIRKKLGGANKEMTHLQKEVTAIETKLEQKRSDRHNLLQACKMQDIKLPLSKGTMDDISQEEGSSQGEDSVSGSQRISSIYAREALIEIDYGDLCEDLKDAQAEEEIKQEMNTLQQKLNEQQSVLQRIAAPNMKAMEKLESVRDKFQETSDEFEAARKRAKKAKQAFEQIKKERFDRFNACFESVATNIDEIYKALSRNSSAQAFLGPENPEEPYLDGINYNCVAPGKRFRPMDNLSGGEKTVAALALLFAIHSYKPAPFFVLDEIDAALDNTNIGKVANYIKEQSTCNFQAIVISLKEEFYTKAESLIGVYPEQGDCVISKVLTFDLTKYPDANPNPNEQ

For “Smc1a Hinge domain, GST-tagged (from UniProt Q14683) (domain or fragment)”, the binding was “binds weakly”.

Source: publication doi:10.1101/2025.06.19.657327
